Positions count from the first letter of the chain named. These are yes or no findings as the source states them, for the method shown. Some entries that bind do so weakly or less than the wild type. Tags and fused reporters may be left off the sequences shown. One block for each binder: values may come before it.
Target: T1, full length human C3 present in plasma (human, UniProt P01024 23-1663)
T1 construct: mature; Not purified: it stood in the assay as dilutions of normal human serum; also called full-length, soluble C3; C3 in NHS
Assay: ELISA, competition; His-tagged Fab (1 ug/mL) on zymosan opsonized with human C3 fragments in the presence of normal human serum (printed PNHCS) at 1/10, 1/50, 1/250 as source of full-length C3; HRP mouse anti-His mAb; normalized to media without serum

Sequences of proteins named here, by UniProt entry; tags and fusion partners are left off. Residues count along the entry.
UniProt P01024, residues 23-1663: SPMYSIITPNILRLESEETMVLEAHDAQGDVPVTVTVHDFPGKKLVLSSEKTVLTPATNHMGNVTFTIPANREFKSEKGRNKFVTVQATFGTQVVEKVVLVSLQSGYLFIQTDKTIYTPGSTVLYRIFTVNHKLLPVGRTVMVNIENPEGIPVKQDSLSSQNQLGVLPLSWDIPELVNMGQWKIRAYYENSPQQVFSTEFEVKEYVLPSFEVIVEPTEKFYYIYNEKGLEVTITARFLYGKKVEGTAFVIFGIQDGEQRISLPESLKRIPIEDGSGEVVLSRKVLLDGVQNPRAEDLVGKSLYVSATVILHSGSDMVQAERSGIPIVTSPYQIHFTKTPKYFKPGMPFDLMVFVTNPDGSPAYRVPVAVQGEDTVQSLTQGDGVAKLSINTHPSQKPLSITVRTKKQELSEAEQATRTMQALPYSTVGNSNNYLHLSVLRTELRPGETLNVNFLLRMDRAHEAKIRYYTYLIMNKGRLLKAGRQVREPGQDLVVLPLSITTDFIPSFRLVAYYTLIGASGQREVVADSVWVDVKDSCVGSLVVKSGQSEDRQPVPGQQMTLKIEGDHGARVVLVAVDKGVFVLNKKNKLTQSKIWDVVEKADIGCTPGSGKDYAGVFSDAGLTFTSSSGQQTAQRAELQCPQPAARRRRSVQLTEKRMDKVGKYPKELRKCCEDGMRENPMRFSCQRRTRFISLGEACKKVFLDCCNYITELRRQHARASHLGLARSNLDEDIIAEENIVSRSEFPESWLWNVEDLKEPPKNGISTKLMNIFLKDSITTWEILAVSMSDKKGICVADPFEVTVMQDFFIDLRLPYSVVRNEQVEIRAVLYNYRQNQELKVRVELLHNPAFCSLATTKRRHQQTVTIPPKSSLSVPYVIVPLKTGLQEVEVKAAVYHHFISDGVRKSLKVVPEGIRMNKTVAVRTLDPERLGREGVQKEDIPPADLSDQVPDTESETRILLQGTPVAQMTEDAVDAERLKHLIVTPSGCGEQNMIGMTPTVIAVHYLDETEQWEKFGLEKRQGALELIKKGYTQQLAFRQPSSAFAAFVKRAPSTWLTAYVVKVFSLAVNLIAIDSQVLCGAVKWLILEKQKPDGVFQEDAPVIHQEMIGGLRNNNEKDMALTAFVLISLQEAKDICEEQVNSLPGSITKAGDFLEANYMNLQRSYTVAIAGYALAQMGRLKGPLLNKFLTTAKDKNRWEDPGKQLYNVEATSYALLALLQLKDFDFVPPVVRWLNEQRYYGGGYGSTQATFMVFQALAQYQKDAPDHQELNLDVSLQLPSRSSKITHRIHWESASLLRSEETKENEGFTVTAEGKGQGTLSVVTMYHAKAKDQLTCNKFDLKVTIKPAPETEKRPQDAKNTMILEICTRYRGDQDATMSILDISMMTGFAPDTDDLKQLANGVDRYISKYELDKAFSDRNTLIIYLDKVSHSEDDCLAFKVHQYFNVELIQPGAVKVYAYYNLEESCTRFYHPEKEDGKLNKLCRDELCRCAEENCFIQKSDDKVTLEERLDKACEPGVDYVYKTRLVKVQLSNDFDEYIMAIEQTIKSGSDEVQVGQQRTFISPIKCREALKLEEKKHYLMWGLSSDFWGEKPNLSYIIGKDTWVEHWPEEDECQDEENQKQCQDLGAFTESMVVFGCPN

binding: binds
B2: Ab4 Fab (His-tagged rabbit/human chimeric anti-C3d Fab) (Fab, V domains shown)
VH: QSLEESGGRLVTPGTPLTLTCTVSGFSLSRYTMAWVRQAPGKGLEYIGWIDSSGSTYYASWAKGRFTISKTSSTTVDLKMTSLTTEDTATYFCASGNDGGDPLYYGMDPWGPGTLVTVSS
VL: DGVMTQTPSSTSAAVGGTVTIKCQASQSIRSWLSWYQQKPGQPPKLLIYEASKLASGVPSRFKGSRSGTEYTLAISGVQREDAATYYCLGSIASDDTAFGAGTNVEIK
notes: Fab with rabbit Vκ/human Cκ/rabbit VH, His-tagged; also called Ab4 (κ)

binding: binds
B3: Ab5 Fab (His-tagged rabbit/human chimeric anti-C3d Fab) (Fab, V domains shown)
VH: B2 VH with R30T, M33L, A34G, T56A, T71A, T81A, S82G, D98T
VL: DPVLTQTPSSTSAAVGGTVTIKCQASQNIGRWLAWYQQKPGQPPKLLIYRASDLASGVPSRFKGSGSGTQFTLTISGVQREDAATYYCLGSYSSSDSAFGGGTEVVVK
notes: Fab with rabbit Vκ/human Cκ/rabbit VH, His-tagged; also called Ab5 (κ)

Second part, the binder before the results:

B1: Ab2 Fab (His-tagged rabbit/human chimeric anti-C3d Fab) (Fab, V domains shown)
VH: QSVEESGGRLVTPGTPLTLTCTVSGFSLSSYAMTWVRQAPGKGLEWIGVIGTSGMRYYANWAKGRFTISKTSTTVDLKITSPTTEDTATYFCARANFYVGNDESTDAFDPWGPGTLVTVSS
VL: ALVMTQTPPSLSASVGETVRIRCLASEDIYNTISWYQQKPGKPPTLLIYGASNLKSGVPPRFSGSGSGTDYTLTIGGVQSEDAATYYCLGGYSYSSTGLTFGAGTKVEIK
notes: Fab with rabbit Vκ/human Cκ/rabbit VH, His-tagged; also called Ab2 (κ)
binding: binds

B4: Ab3 Fab (His-tagged rabbit/human chimeric anti-C3d Fab) (Fab, V domains shown)
VH: QKQLVESGGRLVTPGGSLTLTCTISGIDLNTYGMTWVRQAPGKGLEYIGIIVSSGNTYYANWAQGRFTISKTSTTVDLKMTSLTASDTATYFCARGLGRAYSSGYGMDGWGPGTLVTVSS
VL: DPVLTQTPSSTSAAVGGTVTIKCQASQNIYTSLAWYQQKPGQPPKLLIYGASNLASGVPSRFKGSRSGTEYTLTISGVEREDAATYYCLGSYTQIDTTFGGGTKLEIK
notes: Fab with rabbit Vκ/human Cκ/rabbit VH, His-tagged; also called Ab3 (κ)
binding: binds

Source: patent US20260022165A1 (US Dept. of Health and Human Services, published 2026)
